# Test results as given in the supplement of paper PMC3334620.
# In all, about 33,000 sequences were measured (“E-score (-0.5 to 0.5)”: median about -0.016, highest 2% from about 0.3 on). Some of the results follow.
# Target: T1, Yer184c (UniProt P39961)
# T1 sequence: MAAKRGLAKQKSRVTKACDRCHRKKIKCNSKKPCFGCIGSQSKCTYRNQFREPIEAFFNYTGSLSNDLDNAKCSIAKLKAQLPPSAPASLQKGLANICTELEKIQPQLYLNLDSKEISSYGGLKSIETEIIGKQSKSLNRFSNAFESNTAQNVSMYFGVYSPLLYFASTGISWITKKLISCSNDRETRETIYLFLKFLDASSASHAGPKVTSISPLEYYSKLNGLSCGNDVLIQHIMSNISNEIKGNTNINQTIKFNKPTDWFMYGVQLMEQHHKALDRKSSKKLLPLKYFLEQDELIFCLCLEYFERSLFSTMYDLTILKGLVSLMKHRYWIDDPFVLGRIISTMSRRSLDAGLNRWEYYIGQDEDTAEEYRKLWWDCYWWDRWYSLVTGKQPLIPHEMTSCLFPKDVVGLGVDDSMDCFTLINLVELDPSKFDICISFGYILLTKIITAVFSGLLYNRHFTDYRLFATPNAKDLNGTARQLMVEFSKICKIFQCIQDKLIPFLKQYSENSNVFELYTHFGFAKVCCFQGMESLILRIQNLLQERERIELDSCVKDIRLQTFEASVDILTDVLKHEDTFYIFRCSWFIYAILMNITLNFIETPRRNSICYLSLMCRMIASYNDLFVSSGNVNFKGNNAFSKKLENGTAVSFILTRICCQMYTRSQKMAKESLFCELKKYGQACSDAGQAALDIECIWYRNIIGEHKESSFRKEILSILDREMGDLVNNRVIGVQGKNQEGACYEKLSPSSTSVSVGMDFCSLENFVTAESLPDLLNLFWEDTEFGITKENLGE
# Experiment: PBM E-score (8-mer binding enrichment) (E-score (-0.5 to 0.5)); higher = stronger / more preferred TF binding
# Settings: protein concentration: 100 nM; construct: GST-full length
# Method in brief: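 Masliner-normalised scans of fluorescent anti-GST signal were the basis for scoring. That signal came from GST-tagged yeast transcription factors applied at about 100-200 nM to double-stranded universal all-10-mer Agilent arrays on fresh or once-stripped slides. Each ungapped eight-base word, pooled with its reverse complement, received an E-score from the Universal PBM Analysis Suite.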
row,Sequence,PBM E-score
1,AGGTTGTG,-0.0954
2,CACGTAGA,-0.153
3,CGTTTGGC,-0.0155
4,GAACCCCA,-0.184
5,CGACTAAC,0.168
6,GCATACTA,-0.0368
7,CCTACCAG,-0.314
8,CCTAGCTA,-0.344
9,CCGGGTCA,0.173
10,CAGAAAGA,0.0767
11,CACATTTA,-0.133
12,TGAAATCA,0.212
13,GCCCTCTA,-0.243
14,AGCATAAT,0.117
15,AAAACATG,0.021
16,CAGTTACA,0.0126
17,ACGCTCAG,-0.0976
18,GCAGGGCA,-0.0295
19,CTCTCGAC,-0.202
20,AGCTGATC,0.103
21,GCGATTCA,-0.0996
22,CGGTACAG,0.101
23,CCGATCTC,0.135
24,AAGGACCT,-0.017
25,CGGTTAAG,0.269

row,Sequence,PBM E-score
1,AGTGAATC,0.00528
2,GCAAGAGC,-0.114
3,CACATCCG,0.282
4,GAATCCCC,-0.148
5,GCCAGTCA,-0.181
6,ACTCAGTC,-0.152
7,CGATGACG,-0.142
8,ATCATCGA,0.0277
9,ATAGAACG,0.184
10,TACGCAAA,0.0579
11,AGTCGAGA,-0.00587
12,TAGTGGCA,-0.174
13,AAAGGCAG,0.09
14,CAACGATC,-0.0251
15,TCAACGGA,0.315
16,CGACGGGA,0.044
17,AGTAGTAA,0.137
18,AGATATCG,-0.143
19,AGGGACCG,-0.165
20,CTCTTGAA,-0.0697
21,CACTGTGA,-0.0529
22,AATTAGAC,0.154
23,ATGACTAG,-0.24
24,ATTGGTCA,-0.159
25,AGGAGCGA,-0.0501

row,Sequence,PBM E-score
1,ATCCGGCA,0.296
2,GCCTGGTA,-0.137
3,ACCACACG,-0.164
4,CATGGAGG,-0.216
5,CTAGCGCC,0.00613
6,GGTCTAAC,-0.0821
7,GCCGAGAA,0.368
8,AGTTTCTA,0.0648
9,CTTTCAGC,0.0492
10,TCGATTAA,0.148
11,AGTGCGCC,-0.0283
12,CGGCTATA,0.282
13,AACCCCTT,-0.0656
14,CTCCAAAA,-0.13
15,CAAGCACC,-0.355
16,CTTACCTA,-0.0506
17,GACTCGAC,-0.0811
18,ATTTGGTC,0.105
19,ACATAACC,-0.0194
20,ACGCATCC,-0.142
21,CCTTTTGA,0.0921
22,CAGCGTGG,-0.18
23,CACTACCA,-0.0681
24,AAGTGTGC,0.0256
25,GCTGTTAC,-0.0967

row,Sequence,PBM E-score
1,AACCAACT,-0.0133
2,GTAGAGAC,-0.161
3,GATTAGAA,0.0453
4,CTTCAGAC,-0.0721
5,CTATGTTA,0.0907
6,CCGTTTAC,0.241
7,CATGTACA,-0.117
8,CACGGCTC,0.123
9,GCGTACAA,-0.0543
10,ACTATGCG,-0.0457
11,CTCGCATC,0.0308
12,ATGACCTC,-0.205
13,AATGGTCT,-0.067
14,AGCATGAA,-0.132
15,ACTCAGCG,-0.0907
16,GGGCAAGA,0.106
17,GAGTAGGA,-0.143
18,CAACTAGA,0.025
19,AAGATATC,0.001
20,CTATTTGC,-0.142
21,CCTCGTTA,-0.0533
22,GCGGCTTA,0.025
23,GTCAAATA,0.0627
24,CGCACTTC,-0.0608
25,AAATTACA,0.185

row,Sequence,PBM E-score
1,CTTATATA,0.236
2,AGGGGAAA,-0.12
3,AACTGCGC,-0.0695
4,CCGTGACG,0.0625
5,AATTGGCG,0.0309
6,GATGATGA,0.01
7,GTAGCCAC,-0.197
8,AAGATTTG,0.0837
9,CAACGTCC,-0.146
10,AAGATTGT,0.0121
11,ATTACTCC,0.19
12,ATCAGGCG,-0.0829
13,AACCCTTG,-0.212
14,ATAACCGC,0.136
15,AATGCACA,-0.0124
16,AGCTAATA,0.0275
17,CATCGGAA,0.278
18,CATAAACA,0.162
19,ACAGGTCT,-0.135
20,GTGGAAAC,0.0343
21,CTAGGTTA,0.0792
22,GAGTACAC,-0.0358
23,CGTTTAGC,0.0556
24,AAATTGAG,-0.0886
25,ATTAGCGG,-0.00338

row,Sequence,PBM E-score
1,CTAGACTA,-0.13
2,CTAGGGGC,-0.361
3,CTTAAACA,0.121
4,GCCAGTAC,-0.109
5,GACTGGAC,-0.141
6,ATCGAGGG,-0.0814
7,ACTACTGG,-0.297
8,CTGTCAGC,-0.0746
9,CGCAACCC,-0.0396
10,CGAATGCC,-0.121
11,CCTCATCG,-0.0318
12,CTTTAGTC,-0.0848
13,ATGCCGCG,0.217
14,GAGGTAGA,-0.0651
15,GACTGGCC,-0.138
16,CCACGTGC,-0.146
17,GCATCAAA,0.155
18,AAGACTAC,-0.131
19,ATAGACTA,-0.0358
20,CCCACTAC,-0.0137
21,CATCTACA,-0.0751
22,AAGCAAGT,-0.0405
23,ATCCAAGC,-0.319
24,AACACGGG,-0.0313
25,GGGTCATA,-0.132

row,Sequence,PBM E-score
1,CCGTAAGC,0.00668
2,ACAAATCC,0.0981
3,GTGGTCGA,-0.337
4,AGACGCAC,-0.0804
5,GGCGGCTA,0.0873
6,CCTCGCCA,-0.343
7,AGATCCTA,-0.0936
8,ACCCACGC,-0.0602
9,CACCTTGA,-0.151
10,TTCGAGAA,-0.0185
11,CCACGTGG,-0.395
12,CAGCCAAA,0.116
13,CGCTTTCC,-0.0265
14,AAGTGGTG,-0.141
15,CCGAGTCG,0.00789
16,TAACGGCA,0.129
17,AACCTGCG,-0.0713
18,ACTCTTAA,-0.0784
19,ACTCATGC,-0.227
20,ACACTCAC,0.137
21,CGTGCGTC,0.0693
22,CATTCACC,0.127
